These are yes or no findings as the source states them, for the method shown.
Molecular target: human TFIIH p62 PH domain (PH-D) (residues 1–108) (human) (UniProt P32780)
Assay: ITC; 100∼300 μM RPB6/Rpb6 peptide in the syringe titrated into 10–30 μM p62 PH-D in the cell; 20 mM potassium phosphate (pH 6.8) with or without 25 mM NaCl, 20°C; VP-ITC; both purified

By UniProt entry, the sequences of proteins in these tests, tags left out. Residues count along the entry.
UniProt P32780, residues 1-108: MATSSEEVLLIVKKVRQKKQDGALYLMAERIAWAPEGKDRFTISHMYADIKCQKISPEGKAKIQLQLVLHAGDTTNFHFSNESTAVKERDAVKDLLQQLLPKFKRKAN
UniProt P20435, residues 11-34: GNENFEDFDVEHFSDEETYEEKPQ

yeast (Saccharomyces cerevisiae) Rpb6 (residues 11–34), NTT peptide (from UniProt P20435 11-34)
binding: no binding (tested: 100∼300 μM RPB6/Rpb6 in the syringe)
